Residue numbers refer to the chain shown, from its start. Names may count otherwise. No constants are given. Whether binding was seen depends on the method and setting. Some entries that bind do so weakly or less than the wild type.
B1: BC-05 (anti-BCMA antibody in scFv format) (scFv)
scFv: QMQLVQSGGGVVQPGGSLRLSCAASGFTFSSYGMHWVRQAPGKGLEWVAFIRYDGSNKYYADSVKGRFTISRDNSKNTLYLQMNSLRAEDTAVYYCAKDWEDPLYYYDTPFWGQGTLVTVSSGGGGSGGGGSGGGGSVIWMTQSPSSVSASVGDIITITCQASQDINNYLNWYQLKPGKAPKLLIYDASNVETGVPSRFSGSGSGTDFTFTISSLQPEDTATYYCQQYDKLPYTFGQGTKLEIK
notes: Human scFv from mRNA display, VH-(G4S)3-VL, expressed in E. coli periplasm, His-purified; not shown: C-terminal flag and 6xHis tag
B2: BC-06 (anti-BCMA antibody in scFv format) (scFv)
scFv: EVQLVESGGGLVQPGRSLRLSCAASGFTFDDYAMHWVRQAPGKGLEWVSGISWNSGSIGYADSVKGRFTISRDNAKNSLYLQMNSLRAEDTALYYCAKVQPPGAFDIWGQGTMVTVSSGGGGSGGGGSGGGGSDIQLTQSPSFLSASVGDRVSITCRSTQGISSYLGWYQQKPGKAPKLLIYATSTLQSGVPSRFSGSGSGTEFTLTISSLQPEDFATYYCQQLYSFGQGTKLEIK
notes: Human scFv from mRNA display, VH-(G4S)3-VL, expressed in E. coli periplasm, His-purified; also called clone BC-06; not shown: C-terminal flag and 6xHis tag
B3: BC-07 (anti-BCMA antibody in scFv format) (scFv)
scFv: B2 scFv with P101S
notes: as for B1
B4: BC-08 (anti-BCMA antibody in scFv format) (scFv)
scFv: QVQLVQSGGGVVQPGRSLRLSCAASGFTFSSYAMHWVRQAPGKGLEWVAVISYDGSNKYYADSVKGRFTISRDNAENSVYLQMNSLRAEDTAVYYCARDEHQVVPNYRFDFWGQGSQVTVSSGGGGSGGGGSGGGGSQLVLTQPPSASGTPGQRVTISCSGSGSNIGSNDVSWYQQIPGTASKLLIYWNDQRPSGVPDRFSGSKSGTSASLAISGLQSEDEADYYCAAWDDSLNGWVFGGGTKLTVL
notes: as for B1
B5: BC-02 (anti-BCMA antibody in scFv format) (scFv)
scFv: QVQLVQSGGGVVQPGGSLRLSCAASGFTFSSYGMHWVRQAPGKVLEWVAFIRYDGSNKYYADSVKGRFTISRDNSKNTLYLQMNSLRAEDTAVYYCAKDWDYYDSSGYYPDALGIWGQGTMVTVSSGGGGSGGGGSGGGGSEIVLTQSPSSLSASVGDRVTITCQASQDISNYLNWYQQKPGKAPKLLIYDASNLETGVPSRFSGSGSGTDFTFTISSLQPEDIATYYCQQYDNLPFTFGPGTKVDIK
notes: as for B1

Protein sequences, listed by entry. Tags and fused reporters are not part of them.
UniProt Q02223: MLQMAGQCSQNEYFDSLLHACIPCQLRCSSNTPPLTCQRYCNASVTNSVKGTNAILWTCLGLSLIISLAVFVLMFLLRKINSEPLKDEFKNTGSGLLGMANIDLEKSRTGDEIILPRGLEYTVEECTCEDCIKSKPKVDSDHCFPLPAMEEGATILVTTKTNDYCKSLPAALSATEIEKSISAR

Substrate: B Cell Maturation Antigen (BCMA) on cells (UniProt Q02223)
Assay: flow cytometry, 200 nM scFv on RPMI8226 cells (endogenous BCMA), median fluorescence

binding, binds:
B1
B2
B3
B4

Substrate: B Cell Maturation Antigen (BCMA) on cells (UniProt Q02223)
Assay: flow cytometry, 200 nM scFv on BCMA/CHOK1 and CHOK1 cells

binding, binds:
B1
B2
B3
B4
B5

Substrate: B Cell Maturation Antigen (BCMA) on cells (UniProt Q02223)
Assay: flow cytometry, legend of FIG. 1

binding, binds:
B1
B2
B3
B4
B5

Substrate: B Cell Maturation Antigen (BCMA) on cells (UniProt Q02223)
Assay: flow cytometry, 200 nM scFv on H929 cells (endogenous BCMA), median fluorescence

binding, binds:
B1
B2
B3
B4

Substrate: B Cell Maturation Antigen (BCMA) on cells (UniProt Q02223)
Assay: flow cytometry, 200 nM scFv on H929, MM1.S and RPMI8226 cells (endogenous BCMA)

binding, binds:
B1
B2
B3
B4
B5

Substrate: B Cell Maturation Antigen (BCMA) on cells (UniProt Q02223)
Assay: flow cytometry, 200 nM scFv on BCMA/CHOK1 cells, anti-His biotin/streptavidin Alexa Fluor 647 detection, median fluorescence

binding, binds:
B1
B2
B3
B4

Substrate: B Cell Maturation Antigen (BCMA) on cells (UniProt Q02223)
Assay: flow cytometry, 200 nM scFv on MM1.S cells (endogenous BCMA), median fluorescence

binding, binds:
B1
B2
B3
B4

Reference: patent publication US20260097076A1 (ELPIS BIOPHARMACEUTICALS, published 2026)
